Measured values from paper PMC10425460.
No constants are given. Whether binding was seen depends on the method and setting. Binding can be weak; no strength is given. For part of these data: Binding seen in cells or lysates may run through a third protein. For part of these data: Sequences can lack the tags named with a protein.

How the values were obtained:
[1] = target: cYFP-VAP27-3 (Arabidopsis thaliana); assay: split reporter; BiFC: nYFP fusions of Exo84 isoforms (pCL112-nYFP) and cYFP fusions of VAP27-1/-3 (pCL113-cYFP) transiently co-expressed in N. benthamiana leaf cells; YFP fluorescence by confocal microscopy
[2] = target: VAP27-3 without the transmembrane domain in pGBKT7 (yeast two-hybrid bait) (Arabidopsis thaliana); assay: two-hybrid; one-on-one Y2H in yeast AH109; Exo84 isoforms in pGADT7-GW (prey), VAP27-1/-3 without transmembrane domain in pGBKT7 (bait); growth on SD/-Leu-His-Trp with 5 mM 3-AT
[3] = target: VAP27-1 without the transmembrane domain in pGBKT7 (yeast two-hybrid bait) (Arabidopsis thaliana); assay: as above

Row | Binder | binding [1] | binding [2] | binding [3]
1 | nYFP-Exo84c (protein, UniProt Q9SY60 1-769) MESSEEDDEYPFIESITPQSKIDSVHQSLTEKGIRKLCCELMDLKDAVENMCGDMRTKYLAFLRISEEAVEMEHELVELRKHISSQGILVQDLMAGVCREMDDWNRLPGDVHDAEVEEDPLPNEVTDPKSEFLEKIDLLLAEHKVDEALEAMDAEERSSPDLKGSVEMSSYKSAFMERKAVLEDQLLRIAKQPSICVAELKHALIGLIRLGKGPSAHQLLLKFYATSLRRRIEAFLPSCLTCPNTFPATLSKLVFSNISVATKESAAMFGDDDNPAYSNKVVQWAEREVEYLVRLVKENASPSETASALRAASICLQDCLNYCKVLEPQGLFLSKLFLVLFRPYVEEVLELNFRRARRVIFDLNETDEGLESPSDFVTILSEFAIASDTMMTDCSIRFMQIVQDILEQLTHLVVLHFGESVLTRILQLYDKYIDFLIKALPGHSDEDGLPELQDNTVLARAETDSEQLALLGAAFTILDELLPRSLVKVWKLQIENGGGEGENSAALNSSAAPELKEWKRHMVQAFDKLRNYFCLQFVLSFIYSREGLTRLDALIYLTETPDDLHLPSLPFQALFSKLQQLAIIAGDVLLGKEKLQKILLARLTETVIIWLSNEQEFWSAFEDESNPLQPSGLQQLILDMNFTVEIARFAGYPFKVVQNHASVVINRAINIFSERGINPQSSLPKTEWFTEAAKSAINRLLMGSEDASEPEEYECEEEEEDDHHIVLPEMDDDSDSEDTSSLSTVDSFESFASASMADLESPSFTDSES | binds | – | –
2 | Exo84c in pGADT7-GW (yeast two-hybrid prey) (protein, UniProt Q9SY60 1-769) MESSEEDDEYPFIESITPQSKIDSVHQSLTEKGIRKLCCELMDLKDAVENMCGDMRTKYLAFLRISEEAVEMEHELVELRKHISSQGILVQDLMAGVCREMDDWNRLPGDVHDAEVEEDPLPNEVTDPKSEFLEKIDLLLAEHKVDEALEAMDAEERSSPDLKGSVEMSSYKSAFMERKAVLEDQLLRIAKQPSICVAELKHALIGLIRLGKGPSAHQLLLKFYATSLRRRIEAFLPSCLTCPNTFPATLSKLVFSNISVATKESAAMFGDDDNPAYSNKVVQWAEREVEYLVRLVKENASPSETASALRAASICLQDCLNYCKVLEPQGLFLSKLFLVLFRPYVEEVLELNFRRARRVIFDLNETDEGLESPSDFVTILSEFAIASDTMMTDCSIRFMQIVQDILEQLTHLVVLHFGESVLTRILQLYDKYIDFLIKALPGHSDEDGLPELQDNTVLARAETDSEQLALLGAAFTILDELLPRSLVKVWKLQIENGGGEGENSAALNSSAAPELKEWKRHMVQAFDKLRNYFCLQFVLSFIYSREGLTRLDALIYLTETPDDLHLPSLPFQALFSKLQQLAIIAGDVLLGKEKLQKILLARLTETVIIWLSNEQEFWSAFEDESNPLQPSGLQQLILDMNFTVEIARFAGYPFKVVQNHASVVINRAINIFSERGINPQSSLPKTEWFTEAAKSAINRLLMGSEDASEPEEYECEEEEEDDHHIVLPEMDDDSDSEDTSSLSTVDSFESFASASMADLESPSFTDSES | – | binds | binds
3 | Exo84b in pGADT7-GW (yeast two-hybrid prey) (protein, UniProt Q9LTB0 1-752) MAAKTARSKATPTKENGVRVEEGLSLFKSDKFDADAYVQSKCSINEKDIKQLCSYLLDLKRASAEEMRRSVYANYPAFIRTSKEISDLEGELSSIRNLLSTQATLIHGLADGVNIDDDKVSDESLANGLLNFEDNGLSDLEKWATEFPDHLDALLAERRVDEALAAFDEGEILVSQANEKHTLSSSVLSSLQFAIAERKQKLADQLAKAACQPSTRGGELRSAIAALKRLGDGPRAHTVLLDAHFQRYQYNMQSLRPSSTSYGGAYTAALSQLVFSAISQASSDSLGIFGKEPAYSSELVTWATKQTEAFSLLVKRHALASSAAAGGLRAAAECAQIALGHCSLLEARGLSLCPVLLKHFKPIVEQALEANLKRIEENTAAMAAADDWVLTSPPAGSRHASTAFQNKLTSSAHRFNLMVQDFFEDVGPLLSMQLGSKALEGLFRVFNSYVDVLVRALPGSIEEEDPNFESSCNKIVQMAETEANQLALLANASLLADELLPRAAMKLSLDQTGQRTDDLRRPLDRQNRNPEQREWKRRLLSTVDKLKDAFCRQHALDLIFTEEGDSHLSADMYVNIDENGEDVDFFPSLIFQELFAKLNRMASLAADMFVGRERFAISLLMRLTETVILWLSGDQSFWDDIEEGPRPLGPLGLRQLYLDMKFVICFASQGRYLSRNLHRGTNEIISKALAAFTATGIDPYSELPEDDWFNDICVDAMERLSGKTKGNNGDVHSPTASVSAQSVSSARSHGSY | – | no binding | no binding
4 | Exo84a in pGADT7-GW (yeast two-hybrid prey) (protein, UniProt F4I4B6 1-754) MEARERGSMSSSIGNSAELEGNLTLSDRLKVFKGSTFDPDAYVTSKCQRMNEKETRHLSSYLVELKKASAEEMRKSVYANYAAFIRTSKEISALEGQLLSMRNLLSAQAALVHGLADGVHISSLCADDADDLRDEDLYDMDNKQLSNIENWVVEFFDRLEVLLAEKRVEESMAALEEGRRVAVEAHEKRTLSPTTLLSLNNAIKEKRQELADQLAEAISQPSTRGGELRSAVLSLKKLGDGSRAHTLLLRSYERRLQANIQSLRASNTSYGVAFAAALSQLVFSTIAQAASDSQAVVGEDPAYTSELVTWAVKQAESFALLLKRHTLASSAAAGSLRVTAECVQLCASHCSSLESRGLALSPVLLKHFRPGVEQALTGNLKRIEQSSAALAASDDWSLSYTPTGSRASSTTPTAPHLKLSISAQRFNSMVQEFLEDAGPLDEALQLDGIALDGVLQVFNSYVDLLINALPGSAENEENPVHRIVKVAETESQQTALLVNALLLADELIPRSASRILPQGTSQSTPRRGSSDRQNRPEQREWKKKLQRSVDRLRDSFCRQHALELIFTEEGEVRLSSEIYILMDETTEEPEWFPSPIFQELFAKLTRIAMIVSDMFVGRERFATILLMRLTETVILWISDDQSFWEEMETGDKPLGPLGLQQFYLDMEFVMIFASQGRYLSRNLHQVIKNIIARAVEAVSATGLDPYSTLPEEEWFAEVAQIAIKMLMGKGNFGGHGERDVTSPSVSSAKSYTSN | – | no binding | no binding

The remaining lines, values ahead:

Row | binding [1] | binding [2] | binding [3] | Binder
5 | no binding | – | – | nYFP-fused Exo84b (BiFC construct) (protein, UniProt Q9LTB0 1-752) MAAKTARSKATPTKENGVRVEEGLSLFKSDKFDADAYVQSKCSINEKDIKQLCSYLLDLKRASAEEMRRSVYANYPAFIRTSKEISDLEGELSSIRNLLSTQATLIHGLADGVNIDDDKVSDESLANGLLNFEDNGLSDLEKWATEFPDHLDALLAERRVDEALAAFDEGEILVSQANEKHTLSSSVLSSLQFAIAERKQKLADQLAKAACQPSTRGGELRSAIAALKRLGDGPRAHTVLLDAHFQRYQYNMQSLRPSSTSYGGAYTAALSQLVFSAISQASSDSLGIFGKEPAYSSELVTWATKQTEAFSLLVKRHALASSAAAGGLRAAAECAQIALGHCSLLEARGLSLCPVLLKHFKPIVEQALEANLKRIEENTAAMAAADDWVLTSPPAGSRHASTAFQNKLTSSAHRFNLMVQDFFEDVGPLLSMQLGSKALEGLFRVFNSYVDVLVRALPGSIEEEDPNFESSCNKIVQMAETEANQLALLANASLLADELLPRAAMKLSLDQTGQRTDDLRRPLDRQNRNPEQREWKRRLLSTVDKLKDAFCRQHALDLIFTEEGDSHLSADMYVNIDENGEDVDFFPSLIFQELFAKLNRMASLAADMFVGRERFAISLLMRLTETVILWLSGDQSFWDDIEEGPRPLGPLGLRQLYLDMKFVICFASQGRYLSRNLHRGTNEIISKALAAFTATGIDPYSELPEDDWFNDICVDAMERLSGKTKGNNGDVHSPTASVSAQSVSSARSHGSY
6 | no binding | – | – | nYFP-fused Exo84a (BiFC construct) (protein, UniProt F4I4B6 1-754) MEARERGSMSSSIGNSAELEGNLTLSDRLKVFKGSTFDPDAYVTSKCQRMNEKETRHLSSYLVELKKASAEEMRKSVYANYAAFIRTSKEISALEGQLLSMRNLLSAQAALVHGLADGVHISSLCADDADDLRDEDLYDMDNKQLSNIENWVVEFFDRLEVLLAEKRVEESMAALEEGRRVAVEAHEKRTLSPTTLLSLNNAIKEKRQELADQLAEAISQPSTRGGELRSAVLSLKKLGDGSRAHTLLLRSYERRLQANIQSLRASNTSYGVAFAAALSQLVFSTIAQAASDSQAVVGEDPAYTSELVTWAVKQAESFALLLKRHTLASSAAAGSLRVTAECVQLCASHCSSLESRGLALSPVLLKHFRPGVEQALTGNLKRIEQSSAALAASDDWSLSYTPTGSRASSTTPTAPHLKLSISAQRFNSMVQEFLEDAGPLDEALQLDGIALDGVLQVFNSYVDLLINALPGSAENEENPVHRIVKVAETESQQTALLVNALLLADELIPRSASRILPQGTSQSTPRRGSSDRQNRPEQREWKKKLQRSVDRLRDSFCRQHALELIFTEEGEVRLSSEIYILMDETTEEPEWFPSPIFQELFAKLTRIAMIVSDMFVGRERFATILLMRLTETVILWISDDQSFWEEMETGDKPLGPLGLQQFYLDMEFVMIFASQGRYLSRNLHQVIKNIIARAVEAVSATGLDPYSTLPEEEWFAEVAQIAIKMLMGKGNFGGHGERDVTSPSVSSAKSYTSN
